This passage reports binding results from publication PMC9002611.

This experiment addresses T1, Strep-tagged HybG (native, HybGWT) (E. coli) (UniProt P0AAM7).
T1 sequence: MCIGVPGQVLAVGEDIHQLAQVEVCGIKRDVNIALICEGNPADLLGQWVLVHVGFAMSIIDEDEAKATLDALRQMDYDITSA
Briefly: pull-down; single-step Strep-tactin affinity enrichment of the Strep-tagged chaperone from extracts of anaerobically grown SHH228 cells co-producing HypD; elution fractions (10 ug protein) on SDS-PAGE, Coomassie stain, densitometry (ImageQuant TL); apparent stoichiometries.

Results are given in words; binding and its absence hold for the method and conditions named. Binding seen in cells or lysates may run through a third protein. Some entries that bind do so weakly or less than the wild type. Where a sequence is shown, tags or fusion partners need not be part of it.

B1: HypD (untagged) (protein, UniProt P24192 1-373)
chain: MRFVDEYRAPEQVMQLIEHLRERASHLSYTAERPLRIMEVCGGHTHAIFKFGLDQLLPENVEFIHGPGCPVCVLPMGRIDTCVEIASHPEVIFCTFGDAMRVPGKQGSLLQAKARGADVRIVYSPMDALKLAQENPTRKVVFFGLGFETTMPTTAITLQQAKARDVQNFYFFCQHITLIPTLRSLLEQPDNGIDAFLAPGHVSMVIGTDAYNFIASDFHRPLVVAGFEPLDLLQGVVMLVQQKIAAHSKVENQYRRVVPDAGNLLAQQAIADVFCVNGDSEWRGLGVIESSGVHLTPDYQRFDAEAHFRPAPQQVCDDPRARCGEVLTGKCKPHQCPLFGNTCNPQTAFGALMVSSEGACAAWYQYRQQESEA
For B1, the binding entry is “binds”.
